# Primary screen of a compound library

Protein sequences, listed by entry. Tags and fused reporters are not part of them.
UniProt P9WPC5, whole entry: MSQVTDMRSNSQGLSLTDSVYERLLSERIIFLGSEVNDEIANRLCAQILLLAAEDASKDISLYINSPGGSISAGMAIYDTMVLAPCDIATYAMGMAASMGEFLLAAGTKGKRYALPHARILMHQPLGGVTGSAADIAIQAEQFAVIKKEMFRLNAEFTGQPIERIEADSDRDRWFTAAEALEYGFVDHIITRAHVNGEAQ
UniProt P9WPC3, whole entry partner: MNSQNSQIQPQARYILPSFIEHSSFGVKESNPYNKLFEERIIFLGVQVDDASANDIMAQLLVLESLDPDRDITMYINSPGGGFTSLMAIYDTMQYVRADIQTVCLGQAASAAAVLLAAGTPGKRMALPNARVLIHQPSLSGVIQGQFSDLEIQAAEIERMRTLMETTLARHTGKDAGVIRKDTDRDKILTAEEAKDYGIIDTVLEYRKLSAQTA

Source: ChEMBL document CHEMBL3988442, “University of Dundee, Small-Polar-MMV Screening Library” (2021).

Toxoplasma: 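Assay of Toxoplasma gondii numbers, read through their beta-galactosidase reporter with a colour substrate. Tested at 10 µM. The record gives no direction; the compounds picked for IC50 retests had high values, so higher reads as fewer parasites. About 67,000 compounds were tested under these conditions; 0.38% (about 260) showed 50% or more at least once.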
ClpP1P2: 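ClpP1P2, Mycobacterium tuberculosis (UniProt P9WPC5 and UniProt P9WPC3). Protease assay of ClpP1P2, read by the AMC dye that it sets free. Concentration: 50 µM. Direction is inferred from only a few compounds that gave an IC50; most scored high, so higher reads as stronger inhibition. Most other retested compounds had strongly negative values. Of about 69,000 compounds tested this way, about 10 (0.015%) reached 50% or more in at least one test.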
Leishmania in macrophages: 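Cell assay of Leishmania donovani living inside macrophages; the read-out is not stated. Tested at 30 µM. Direction is inferred from retests: higher values go with stronger inhibition. Size under these conditions: about 69,000 compounds, about 1,000 of them at 50% or above in at least one test.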
T. brucei: 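Whole-parasite assay of Trypanosoma brucei over 72 hours; the read-out is not stated. Tested at 30 µM. Higher reads as stronger inhibition (inferred: compounds with an IC50 in retests scored well above the rest). Values scatter widely below zero; nearly all retest evidence comes from the higher of the two concentrations used. Of about 64,000 compounds tested this way, about 940 (1.5%) reached 50% or more in at least one test.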

The filed quantity is “Percent Effect” (%).
The record does not define 0% and 100%; most values in the screen are far below 50% and negative numbers occur (in some assays of this library far below -100).
This is an unselected part of the compounds tested.

Cc1ccc(CN2CCC3(CC(C(=O)NCC4CC4)=NO3)C2)cc1C (stereo not drawn) read Toxoplasma: 2.991%; ClpP1P2: 3.25%; Leishmania in macrophages: -3.136%; T. brucei: -25.49%. CC(=O)NCC(=O)N1C[C@@H]2CC[C@H](Oc3ccccc3Cl)[C@@H]2C1 read ClpP1P2: -13.58%. Result for COc1cccc2c1CCCCN2C(=O)c1oc(C)nc1C was Toxoplasma: -22.17%; ClpP1P2: 1.037%; Leishmania in macrophages: 13.91%; T. brucei: -54.3%. CNc1ncc(C(=O)N2CCCC(Cc3ccccc3OC)C2)s1 (stereo not drawn) gave Toxoplasma: 65.23%; ClpP1P2: 19.04%; Leishmania in macrophages: 11.73%; T. brucei: -74.15%. With CN(Cc1ccsc1)C(=O)COC(=O)c1cc(Cl)c[nH]1 the screen gave ClpP1P2: 1.19%; Leishmania in macrophages: 3.609%; T. brucei: -12.14%.

For Cc1nc(Nc2cnccn2)cc(C2CN(C(C)C)C2)n1.O=CO the result was Toxoplasma: -14.18%; Leishmania in macrophages: 18.25%; T. brucei: -9.413%. Result for Cc1cccc(OCC(O)CN2CCC(Cn3cccn3)CC2)c1 (stereo not drawn) was Toxoplasma: 17.26%; ClpP1P2: -9.483%; Leishmania in macrophages: 21.38%. With COCCn1c2c(ccc1=O)CC(NCc1cnn(C)c1)CC2 (stereo not drawn) the screen gave Toxoplasma: -3.816%; ClpP1P2: -3.673%; Leishmania in macrophages: 11.61%; T. brucei: -29.46%. [H][C@]12CC[C@]([H])(CN(C3CCOCC3)C1)N(C(=O)c1csc(C(C)C)n1)C2 gave Toxoplasma: 5.35%; Leishmania in macrophages: 12.76%; T. brucei: -34.42%. Cc1ccc(CN2CC(O)CN(C(=O)OCC(C)C)CC2=O)cc1 (stereo not drawn) read Toxoplasma: -23.38%; ClpP1P2: 9.401%; Leishmania in macrophages: -4.146%; T. brucei: 3.174%.

Result for Cc1ccc2cc(C(=O)NCCn3nc4ccccn4c3=O)[nH]c2c1 was Toxoplasma: -3.835%; ClpP1P2: 27.41%; Leishmania in macrophages: -5.441%; T. brucei: -16.99%. CC(C)(C)OC(=O)NCC1CCCCN1Cc1cccnc1 (stereo not drawn) read Toxoplasma: 0.6377%; ClpP1P2: -0.4796%; Leishmania in macrophages: -9.273%; T. brucei: -6.891%. Result for CCc1nc(C)c([C@H]2CN(C)C[C@@H]2C(=O)NC(C)(C)c2ccccc2)[nH]1 was Toxoplasma: -11.44%; ClpP1P2: 7.925%; Leishmania in macrophages: 15.33%; T. brucei: -19.7%. With CC(NC(=O)N1CCC[C@H]1CO)c1noc(-c2ccccc2)n1 (stereo partly drawn) the screen gave Toxoplasma: -6.5%; ClpP1P2: 2.938%; Leishmania in macrophages: 27.18%; T. brucei: -3.338%. Result for CN(C)c1cc(CNCc2cccc3c2OCCO3)ccn1 was Toxoplasma: -16.35%; ClpP1P2: -9.512%; Leishmania in macrophages: 2.952%; T. brucei: -7.716%.

With O=C(NCC(=O)N1CCCC1)c1nn(-c2ccccc2F)cc1O the screen gave Toxoplasma: 5.01%; ClpP1P2: -21.56%; Leishmania in macrophages: -20.48%; T. brucei: 7.033%. Cc1oc(-c2ccco2)nc1CN1CCc2cncnc2C1 read Toxoplasma: 6.706%; ClpP1P2: -22.99%; Leishmania in macrophages: 42.75%; T. brucei: 8.398%. For Nc1ncncc1-c1noc([C@@H]2CCCN2CC2CC2)n1 the result was Toxoplasma: -6.268%; ClpP1P2: -10.14%; Leishmania in macrophages: -7.335%; T. brucei: -4.914%. With CC(C)CC1(C(=O)NCCc2nncn2C2CC2)CCC1 the screen gave Toxoplasma: 2.588%; ClpP1P2: -2.433%; Leishmania in macrophages: 21.88%; T. brucei: -37.58%. OCC(O)CSCc1ccc(Cl)cc1Cl (stereo not drawn) gave Toxoplasma: -4.906%; ClpP1P2: 4.772%; Leishmania in macrophages: -17.77%; T. brucei: 5.564%.

OCCN1CCN(Cc2cn(-c3ccccc3)nn2)CC1 read Toxoplasma: -0.911%; ClpP1P2: -2.034%; Leishmania in macrophages: 0.8356%; T. brucei: -46.21%.

The last 3 entries again:

compound	Toxoplasma	ClpP1P2	Leishmania in macrophages	T. brucei
CC(C)CC1(C(=O)NCCc2nncn2C2CC2)CCC1	2.588	-2.433	21.88	-37.58
OCC(O)CSCc1ccc(Cl)cc1Cl (stereo not drawn)	-4.906	4.772	-17.77	5.564
OCCN1CCN(Cc2cn(-c3ccccc3)nn2)CC1	-0.911	-2.034	0.8356	-46.21